Measured data: PubChem BioAssay AID652272 (Drosophila RNAi Screening Center, 2013)

Screen: 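Genes whose knock-down decreases or increases Hedgehog reporter output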 (primary screen)
Cell system: Drosophila clone 8 (Cl8) cells
Knock-down reagent: long dsRNA against Drosophila genes
Detection: 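Plate reader light from a firefly reporter under a ptc promoter fragment that responds to Hedgehog, with Renilla light as transfection reference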
Reading the numbers: firefly Hh reporter signal: higher = more ptc reporter light; Renilla reference signal: higher = more Renilla control light
Rule for the call: 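Hit when the z-score averaged over two replicates is under -2 or over +3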
Meaning of the calls: active = hit: reporter lowered or raised; inactive = not a hit
The deposit covers about 21,000 reagents; below is an unselected part of those with a known target gene and a result. Of all reagents, 503 (2.4%) were called active. 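Raw plate light values, not normalised; calls rest on replicate z-scores that were not deposited; hits include reporter decreases as well as increases.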 Reagent sequences are not shown. Not stated in the record: the amount of reagent, the time to read-out.

"firefly Hh reporter signal, replicate 1","firefly Hh reporter signal, replicate 2","firefly Hh reporter signal, replicate 3","Renilla reference signal, replicate 1","Renilla reference signal, replicate 2",activity call,target gene,amplicon
1.34e5,1.12e5,,3824,3377,active,slmb,DRSC17056
98417,3.56e5,,3110,10883,inactive,CG2278,DRSC18226
76403,77354,,2072,2032,inactive,Nup205,DRSC19432
1.07e5,60396,,3907,2327,inactive,Pi4KIIalpha,DRSC12322
99586,1.51e5,,3865,4628,inactive,Pi4KIIalpha,DRSC12323
41180,54333,65168,5524,4230,inactive,Ilp4,DRSC10701
62564,58204,,2978,2644,inactive,Lnpk,DRSC07254
1.14e5,1.61e5,,4660,6309,inactive,kirre,DRSC18785
39606,79671,,4723,5836,inactive,CG34342,DRSC09756
1.15e5,64651,,3409,2104,inactive,mRpS31,DRSC10556
7.84e5,2.98e5,,36459,10625,inactive,Ubc2,DRSC01137
1.15e5,51969,,3143,5670,inactive,Ubc2,DRSC03468
1.05e5,,,4325,3228,inactive,CG13070,DRSC09953
76332,1.22e5,,1664,6264,inactive,vrs,DRSC15832
60976,95546,,1920,2666,inactive,CG14395,DRSC14852
1.01e5,48019,,5272,2592,inactive,CG11714,DRSC09857
57410,2.10e5,,1293,7386,inactive,PpV,DRSC18700
1.38e5,61639,,4813,2624,inactive,mRpL24,DRSC03113
22916,21376,,1868,2376,active,Hel25E,DRSC03342
82800,61552,,4020,2677,inactive,Plod,DRSC10601
54992,46903,37356,4965,2728,inactive,Plod,DRSC10602
1.23e5,2.30e5,,3936,9760,inactive,CG43127,DRSC09039
1.94e5,85686,,7104,2263,inactive,Cyp6a8,DRSC07384
6.39e5,2.23e5,,38819,5367,inactive,TwdlZ,DRSC19154
80892,1.13e5,,1284,3304,inactive,ATP6AP2,DRSC16420
1.13e5,1.03e5,,5244,3946,inactive,CG32066,DRSC10652
67346,34456,58448,4043,4608,inactive,CG32066,DRSC10653
80530,41289,29392,4921,2832,inactive,Or67d,DRSC10158
76896,26340,,3994,1155,inactive,RpS12,DRSC11270
79448,56202,69189,5664,5620,inactive,Cpr67Fa2,DRSC10315
95595,2.74e5,,3746,10576,inactive,pira,DRSC19494
5.51e5,85586,,31284,3235,inactive,CG4960,DRSC15684
1.40e5,54428,,3697,5602,inactive,CG9394,DRSC04550
94807,2.52e5,,3360,10070,inactive,CG12730,DRSC17885
81981,1.09e5,,1245,3114,inactive,CG11436,DRSC17783
1.09e5,68506,,4230,2436,inactive,CG2225,DRSC03722
1.08e5,63808,,2525,6290,inactive,CG2225,DRSC03723
4.30e5,2.01e5,,22073,8960,inactive,mRpS23,DRSC01348
1.13e5,47017,,3124,5178,inactive,CG14277,DRSC02380

Entries listed so far whose gene name starts with U or u:
"firefly Hh reporter signal, replicate 1","firefly Hh reporter signal, replicate 2","firefly Hh reporter signal, replicate 3","Renilla reference signal, replicate 1","Renilla reference signal, replicate 2",activity call,target gene,amplicon
7.84e5,2.98e5,,36459,10625,inactive,Ubc2,DRSC01137
1.15e5,51969,,3143,5670,inactive,Ubc2,DRSC03468
